These are yes or no findings as the source states them, for the method shown. In cells and extracts the contact can be indirect. Some binding calls cover weakened binding; strength is not graded here.
Columns and labels:
Assay in all cases: co-IP; cells cross-linked with 2 mM DSP (1 h, RT) before lysis in NP-40 buffer (50 mM Tris-HCl pH 8.0, 150 mM NaCl, 1% NP-40); 1 mg pre-cleared lysate, 2 µg anti-IL-13Rα2, anti-EGFR or anti-Grb2, protein G beads, 4 °C; immunoblot
[1] = biological target: wild-type EGFR stably expressed in Gli36 cells (human) (UniProt P00533)
[2] = biological target: endogenous wild-type EGFR of primary wtEGFR-positive GBM patient tumor (human (endogenous in primary GBM patient tumor)) (UniProt P00533)
[3] = biological target: wild-type EGFR, tetracycline-induced in U251-E6 cells (human) (UniProt P00533)

Binder | binding [1] | binding [2] | binding [3]
interleukin-13 receptor alpha 2 (IL-13Rα2), full length, stably expressed in Gli36 cells (receptor, UniProt Q14627 27-380) DTEIKVNPPQDFEIVDPGYLGYLYLQWQPPLSLDHFKECTVEYELKYRNIGSETWKTIITKNLHYKDGFDLNKGIEAKIHTLLPWQCTNGSEVQSSWAETTYWISPQGIPETKVQDMDCVYYNWQYLLCSWKPGIGVLLDTNYNLFYWYEGLDHALQCVDYIKADGQNIGCRFPYLEASDYKDFYICVNGSSENKPIRSSYFTFQLQNIVKPLPPVYLTFTRESSCEIKLKWSIPLGPIPARCFDYEIEIREDDTTLVTATVENETYTLKTTNETRQLCFVVRSKVNIYCSDDGIWSEWSDKQCWEGEDLSKKTLLRFWLPFGFILILVIFVTGLLLRKPNTYPKMIPEFFCDT | binds | – | –
endogenous IL-13Rα2 of glioma cells and primary GBM tumors (receptor, UniProt Q14627 27-380) DTEIKVNPPQDFEIVDPGYLGYLYLQWQPPLSLDHFKECTVEYELKYRNIGSETWKTIITKNLHYKDGFDLNKGIEAKIHTLLPWQCTNGSEVQSSWAETTYWISPQGIPETKVQDMDCVYYNWQYLLCSWKPGIGVLLDTNYNLFYWYEGLDHALQCVDYIKADGQNIGCRFPYLEASDYKDFYICVNGSSENKPIRSSYFTFQLQNIVKPLPPVYLTFTRESSCEIKLKWSIPLGPIPARCFDYEIEIREDDTTLVTATVENETYTLKTTNETRQLCFVVRSKVNIYCSDDGIWSEWSDKQCWEGEDLSKKTLLRFWLPFGFILILVIFVTGLLLRKPNTYPKMIPEFFCDT | – | binds | binds

Reference: paper PMC5715073
